Holding throughout (test): proximity labelling; TurboID fused to the C terminus of the bait in S. pombe cells; lysis in 8 M urea buffer; biotinylated proteins isolated on streptavidin resin and identified by mass spectrometry (MudPIT); one culture of each strain, done once
The target in assay [1] is Myo2–TurboID (S. pombe) (UniProt Q9USI6).
In assay [2] the target is T1, Opy1–TurboID (S. pombe) (UniProt Q96WV2).
T1 sequence: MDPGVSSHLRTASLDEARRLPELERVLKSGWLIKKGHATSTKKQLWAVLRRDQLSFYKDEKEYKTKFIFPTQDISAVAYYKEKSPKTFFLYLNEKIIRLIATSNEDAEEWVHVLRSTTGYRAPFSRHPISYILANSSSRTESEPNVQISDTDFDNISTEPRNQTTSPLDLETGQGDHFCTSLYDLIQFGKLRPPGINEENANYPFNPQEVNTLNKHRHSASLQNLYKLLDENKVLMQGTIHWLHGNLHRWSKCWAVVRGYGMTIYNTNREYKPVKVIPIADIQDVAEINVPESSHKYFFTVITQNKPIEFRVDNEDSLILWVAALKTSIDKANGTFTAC

Protein sequences, listed by entry. Tags and fused reporters are not part of them.
UniProt Q9USI6: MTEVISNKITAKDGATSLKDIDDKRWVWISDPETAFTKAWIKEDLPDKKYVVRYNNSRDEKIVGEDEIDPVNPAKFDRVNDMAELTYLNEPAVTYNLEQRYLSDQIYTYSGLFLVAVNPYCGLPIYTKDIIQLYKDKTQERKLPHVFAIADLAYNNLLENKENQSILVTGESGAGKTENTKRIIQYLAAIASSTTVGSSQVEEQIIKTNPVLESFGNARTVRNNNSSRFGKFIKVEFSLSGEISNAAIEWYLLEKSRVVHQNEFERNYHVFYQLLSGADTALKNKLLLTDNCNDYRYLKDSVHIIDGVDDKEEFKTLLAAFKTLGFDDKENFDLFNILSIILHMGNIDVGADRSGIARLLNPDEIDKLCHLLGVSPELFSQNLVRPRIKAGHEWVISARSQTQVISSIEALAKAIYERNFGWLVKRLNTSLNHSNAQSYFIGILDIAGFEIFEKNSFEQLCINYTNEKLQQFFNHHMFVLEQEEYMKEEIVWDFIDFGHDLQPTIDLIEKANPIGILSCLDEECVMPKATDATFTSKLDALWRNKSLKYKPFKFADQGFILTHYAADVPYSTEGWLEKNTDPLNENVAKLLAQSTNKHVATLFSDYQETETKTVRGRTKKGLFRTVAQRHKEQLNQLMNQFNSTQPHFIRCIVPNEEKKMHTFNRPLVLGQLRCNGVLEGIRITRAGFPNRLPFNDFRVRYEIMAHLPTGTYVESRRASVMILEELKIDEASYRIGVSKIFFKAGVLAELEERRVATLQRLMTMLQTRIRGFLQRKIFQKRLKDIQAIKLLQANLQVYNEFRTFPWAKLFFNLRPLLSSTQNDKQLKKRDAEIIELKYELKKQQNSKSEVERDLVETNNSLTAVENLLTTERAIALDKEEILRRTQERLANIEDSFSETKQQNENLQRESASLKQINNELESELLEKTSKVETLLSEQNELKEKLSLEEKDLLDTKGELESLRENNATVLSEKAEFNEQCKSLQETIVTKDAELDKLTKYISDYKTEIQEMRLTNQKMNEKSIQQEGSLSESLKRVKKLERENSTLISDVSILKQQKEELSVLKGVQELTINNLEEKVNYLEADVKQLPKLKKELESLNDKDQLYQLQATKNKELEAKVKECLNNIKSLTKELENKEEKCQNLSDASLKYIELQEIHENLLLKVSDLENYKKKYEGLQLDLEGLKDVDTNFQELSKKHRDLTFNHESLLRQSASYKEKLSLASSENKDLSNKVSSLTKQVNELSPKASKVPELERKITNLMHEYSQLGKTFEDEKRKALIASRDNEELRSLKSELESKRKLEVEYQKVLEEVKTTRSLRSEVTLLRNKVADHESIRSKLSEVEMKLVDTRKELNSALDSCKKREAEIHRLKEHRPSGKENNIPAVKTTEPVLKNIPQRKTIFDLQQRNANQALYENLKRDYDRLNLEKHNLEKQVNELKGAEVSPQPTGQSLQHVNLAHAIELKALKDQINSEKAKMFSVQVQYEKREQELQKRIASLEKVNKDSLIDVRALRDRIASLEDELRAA

The target of assay [3] is T2, Its3–TurboID (S. pombe) (UniProt O13853).
T2 sequence: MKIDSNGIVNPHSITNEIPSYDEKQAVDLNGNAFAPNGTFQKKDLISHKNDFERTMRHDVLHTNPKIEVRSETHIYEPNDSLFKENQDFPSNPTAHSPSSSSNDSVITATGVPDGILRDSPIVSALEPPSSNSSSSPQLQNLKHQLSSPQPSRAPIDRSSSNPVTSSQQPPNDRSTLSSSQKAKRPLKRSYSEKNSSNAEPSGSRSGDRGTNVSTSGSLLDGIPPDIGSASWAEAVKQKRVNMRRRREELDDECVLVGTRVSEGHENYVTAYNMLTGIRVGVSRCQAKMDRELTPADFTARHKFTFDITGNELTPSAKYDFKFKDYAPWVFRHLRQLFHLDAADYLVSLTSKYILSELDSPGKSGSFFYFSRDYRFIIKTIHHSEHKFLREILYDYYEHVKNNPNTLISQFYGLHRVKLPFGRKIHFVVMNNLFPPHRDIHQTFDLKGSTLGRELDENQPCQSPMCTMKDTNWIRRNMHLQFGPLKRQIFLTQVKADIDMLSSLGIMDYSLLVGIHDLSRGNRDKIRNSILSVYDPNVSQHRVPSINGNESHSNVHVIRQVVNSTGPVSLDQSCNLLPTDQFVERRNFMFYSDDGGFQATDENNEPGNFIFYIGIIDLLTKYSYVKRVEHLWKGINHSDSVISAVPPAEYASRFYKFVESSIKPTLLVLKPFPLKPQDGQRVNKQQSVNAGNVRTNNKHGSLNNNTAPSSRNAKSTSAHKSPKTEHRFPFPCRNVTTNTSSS

These are yes or no findings as the source states them, for the method shown. In cells and extracts the contact can be indirect. Here binding means that the protein was enriched with, or labelled near, the bait; the list need not be complete. For part of these data: A no says only that the protein was not detected with the bait.

B1: Duc1 (domain of unknown function at the cortex 1) (protein, UniProt O74504 1-791)
chain: MKLKVSIGCDAQHTQIAWVNYEGRPTEVDGPLWVGRILVRVRDFDGFTPDGSPPKRDSEYFRGRSRKFQIQAEGRFKKEYNGDQVIYGTQFDHMISTFPESAFRAGMRIAKYIDPAVYYDKYARSPYIMSPFVACVNTLSAWPAPSRLEDAVISLVEADSQESDTESLPEINDSSDVSLSDLPSTNVTPKKTTTQIDVQTNIVTPPITVTAVPDSPNPPAATPATVADNDDLSIVSSDSGNTTAPRKNRHRYWSFAGFSDSTRFSHLNVPAAIPDAPSVKTETSQNVSQLSVKSAATSLAPVEDDEDDELLLHRHITNKHKDFNLHVKQLGLLHKPSLDLEEGYIMDENYGKDVYKHGISNVPDDENEDDLQRYFTALEMQQDQKEQHKKSKNKDPFRKITHPSLHLGKFSTPKLIKRMSLRSKKSLRNDSKSDDVGNSTHRFSTASAASTSAVKTEKEKKMSAPRRSLDKLIRIGSLHRHHHHHHKTDLIESDSGIEASESNRRKSDIFSFSGRNSFSVSRPSSSHSTLSYANDSASSAVNVAGETGSLPPLREQTSITSGVPPSNRLKKHVSTPEKIVEERSIDEVSQSNTPSSKQLPQSVDGKTVTANANSTTVAKQPTSNVALTRPKPVRTATSQSKIPKPVKHIPSDSNNLDPQLGPWRFANPKVDPIEDNSFIFGEHKSVKERRKYFSSSKFCRENFFYDKDVVYCMSFFSPHMDFNTFNLNIGPIRLNVYKHLNSDGHQPIRYMMRETDDEDAVMFVVEFDLLEDDDETVLAEQAKERERRKQT
As to B1, the binding entry in assay [1] is recorded as “no binding”.

B2: Its3 (enzyme, UniProt O13853 1-742)
chain: T2 sequence
In the case of B2, in assay [2], the binding result is on record as “binds”.

B3: Opy1 (protein, UniProt Q96WV2 1-339)
chain: T1 sequence
For B3, the binding result in assay [3] is reported as “binds”.

Source of the values: PMC11449445, “Fission yeast Duc1 links to ER–PM contact sites and influences PM lipid composition and cytokinetic ring anchoring” (Journal of Cell Science, 2024).
